Test results taken from PMC5095516.

Molecular target: T1, FLAG-tagged Lfc (UniProt Q60875)
T1 sequence: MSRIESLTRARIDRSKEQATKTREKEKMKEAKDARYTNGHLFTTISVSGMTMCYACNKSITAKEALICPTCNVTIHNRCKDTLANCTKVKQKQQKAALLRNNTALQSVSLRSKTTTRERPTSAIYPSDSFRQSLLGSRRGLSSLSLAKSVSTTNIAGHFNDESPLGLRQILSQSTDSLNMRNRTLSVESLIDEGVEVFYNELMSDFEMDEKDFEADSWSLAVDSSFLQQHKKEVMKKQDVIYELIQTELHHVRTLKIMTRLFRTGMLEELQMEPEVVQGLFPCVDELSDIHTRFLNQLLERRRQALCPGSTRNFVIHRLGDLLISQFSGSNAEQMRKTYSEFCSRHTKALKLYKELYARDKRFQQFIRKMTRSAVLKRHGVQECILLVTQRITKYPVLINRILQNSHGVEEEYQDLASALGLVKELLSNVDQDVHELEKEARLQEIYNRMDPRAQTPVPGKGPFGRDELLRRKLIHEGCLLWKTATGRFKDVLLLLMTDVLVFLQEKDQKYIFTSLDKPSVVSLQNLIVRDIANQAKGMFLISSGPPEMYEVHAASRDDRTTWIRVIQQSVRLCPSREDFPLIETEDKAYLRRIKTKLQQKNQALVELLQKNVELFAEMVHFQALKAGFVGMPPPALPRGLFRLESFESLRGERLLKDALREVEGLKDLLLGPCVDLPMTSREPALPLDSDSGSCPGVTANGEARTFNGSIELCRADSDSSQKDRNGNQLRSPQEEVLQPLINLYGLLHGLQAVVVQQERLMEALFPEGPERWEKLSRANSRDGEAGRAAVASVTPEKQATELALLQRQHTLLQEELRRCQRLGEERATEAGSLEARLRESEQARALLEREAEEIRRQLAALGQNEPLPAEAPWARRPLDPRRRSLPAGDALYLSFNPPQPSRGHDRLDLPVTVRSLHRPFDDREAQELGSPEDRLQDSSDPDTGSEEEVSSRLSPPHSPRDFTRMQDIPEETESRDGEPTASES
Test: co-IP; lysate of HEK293T cells co-expressing FLAG-Lfc and HA-RhoA incubated with recombinant GST-tagged CaMKv domains before the co-immunoprecipitation of Lfc and RhoA; only the binder purified

binding: binds
Substance: recombinant GST-tagged CaMKv CaM-binding domain (mouse) (domain or fragment)

These are yes or no findings as the source states them, for the method shown. Binding seen in cells or lysates may run through a third protein. Binding can be weak; no strength is given. Sequences can lack the tags named with a protein.
